Publication doi:10.1101/524314
These are yes or no findings as the source states them, for the method shown. Binding seen in cells or lysates may run through a third protein. Some binding calls cover weakened binding; strength is not graded here.

What was measured:
[1] = target: ribosomal protein L12 (Drosophila melanogaster (endogenous in embryo extract)) (UniProt Q9W1B9); assay: cross-linking
[2] = target: ribosomal protein L23 (Drosophila melanogaster (endogenous in embryo extract)) (UniProt P48159); assay: cross-linking

binding [1]: binds | binding [2]: binds
Substance: eukaryotic elongation factor eEF2 (from UniProt P13060 1-844)
